These are literature values, as cited in patent publication US6218375A, “Complex of ras-farnesyltransferase inhibitor and sulfobutylether-7-β-cyclodextrin or 2-hydroxypropyl-β-cyclodextrin and method” (priority 2000, dated 2001).

The structures appear in SMILES notation.

The conditions of this series: by β-cyclodextrin.

`CN1[C@@H]2CC[C@H]1C[C@@H](OC(=O)C(CO)c1ccccc1)C2` (stereo partly shown) [atropine]: the stabilization result is reported as “increases stabilization”.
